Values from PubChem BioAssay AID493246 (Drosophila RNAi Screening Center, 2011)

Assay: 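Identify essential fly genes by loss of cell viability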 (primary screen)
Cells: Drosophila Kc and S2R+ cells
Reagent: long dsRNA against Drosophila genes
Measured: 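Raw, unnormalised count of remaining cells in each well; per-plate z-scores of cell number underlie the calls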
Direction: Kc cell number and S2R+ cell number: higher = more cells remaining
Active means: 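Active when the per-plate z-score of cell number is 3 or more in the direction of fewer cells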
The screen tested about 21,000 reagents; shown is a random part of those that have a named target and a result. Of all reagents, 429 (2%) were called active. 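Values are raw and not normalised between plates; calls rest on per-plate z-scores that were not deposited.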 Unmarked entries are inactive. Names joined by + are all predicted targets of the reagent. Reagent sequences are not shown. The record does not give: the amount of reagent, the time to read-out.

The opening 4 entries, to show the layout:
no.	gene	PubChem SID	Kc cell number, rep 1	Kc cell number, rep 2	S2R+ cell number, rep 1	S2R+ cell number, rep 2
1	LManIV	SID104183014	1.65e6	1.58e6	1.17e6	1.28e6
2	CG5787	SID104182687	1.44e6	1.47e6	9.79e5	1.11e6
3	CG42518 + MED9	SID104186709	1.52e6	1.61e6	1.13e6	1.20e6
4	Nplp1	SID104184162	1.39e6	1.47e6	1.10e6	1.08e6

The listing, from the start:
no.	gene	PubChem SID	Kc cell number, rep 1	Kc cell number, rep 2	S2R+ cell number, rep 1	S2R+ cell number, rep 2
1	LManIV	SID104183014	1.65e6	1.58e6	1.17e6	1.28e6
2	CG5787	SID104182687	1.44e6	1.47e6	9.79e5	1.11e6
3	CG42518 + MED9	SID104186709	1.52e6	1.61e6	1.13e6	1.20e6
4	Nplp1	SID104184162	1.39e6	1.47e6	1.10e6	1.08e6
5	beat-VII	SID104193572	1.30e6	1.53e6	1.20e6	9.24e5
6	beat-VII	SID104194535	1.44e6	1.52e6	1.04e6	1.13e6
7	beat-VII	SID104194536	1.55e6	1.57e6	1.01e6	1.14e6
8	CG14929 + CG4970	SID104182203	1.72e6	1.68e6	1.24e6	1.49e6
9	CG14929 + CG4970	SID104182588	1.72e6	1.74e6	1.26e6	1.46e6
10	trbl	SID104191693	1.34e6	1.41e6	1.27e6	1.36e6
11	Tsp42Eo	SID104185976	1.44e6	1.52e6	1.18e6	1.26e6
12	CG31313	SID104192836	1.35e6	1.57e6	8.63e5	1.05e6
13	Ca-alpha1T	SID104197634	1.52e6	1.49e6	1.08e6	1.18e6
14	Ca-alpha1T	SID104197895	1.39e6	1.40e6	1.05e6	1.17e6
15	Ca-alpha1T	SID104198148	1.55e6	1.53e6	1.10e6	1.19e6
16	Ca-alpha1T	SID104198149	1.60e6	1.58e6	1.05e6	1.22e6
17	yellow-c + CIAPIN1	SID104181690	1.56e6	1.59e6	1.33e6	1.39e6
18	jing	SID104184715	1.71e6	1.75e6	1.30e6	1.49e6
19	jing	SID104184719	1.52e6	1.55e6	1.03e6	1.09e6
20	jing	SID104184792	1.45e6	1.52e6	1.18e6	1.15e6
21	CG16853	SID104181669	1.50e6	1.57e6	1.24e6	1.36e6
22	CG17544	SID104182416	1.39e6	1.43e6	1.40e6	1.32e6
23	Ir48c	SID104185946	1.59e6	1.58e6	1.17e6	1.33e6
24	Alms1b + Alms1a	SID104198351	6.18e5		8.42e5	
25	Cpr76Ba	SID104190852	1.31e6	1.36e6	1.21e6	1.37e6
26	Gnpnat	SID104195197	5.61e5		8.45e5	
27	CG4763	SID104183801	1.51e6	1.70e6	8.95e5	1.05e6
28	CG4763	SID104184279	1.79e6	1.92e6	1.29e6	1.31e6
29	Mis12	SID104190091	1.65e6	1.62e6	1.13e6	1.19e6
30	Ciz1	SID104189467	1.89e6	1.87e6	1.14e6	1.33e6
31	CG34450	SID104197614	6.38e5		9.55e5	
32	ND-15	SID104180103	1.00e6	1.32e6	2.91e5	3.89e5
33	CG34109	SID104181961	1.57e6	1.62e6	1.19e6	1.28e6
34	CG34109	SID104182016	1.58e6	1.59e6	1.16e6	1.24e6
35	CG34109	SID104182017	1.47e6	1.50e6	1.05e6	1.14e6
36	Rala	SID104198495	1.57e6	1.54e6	1.03e6	1.18e6
37	Hpr1	SID104192088	1.55e6	1.62e6	1.44e6	1.49e6
38	Dek	SID104187210	1.41e6	1.43e6	1.04e6	1.09e6
39	CG15878	SID104188278	1.58e6	1.42e6	9.23e5	1.23e6
40	CG31559	SID104191964	1.51e6	1.39e6	1.36e6	1.43e6
41	CG31559	SID104192062	1.52e6	1.54e6	1.38e6	1.50e6
42	MED17	SID104196681	1.59e6	1.71e6	1.15e6	1.25e6
43	Nse4	SID104182031	1.89e6	1.99e6	1.27e6	1.51e6
44	mEFTs	SID104182745	1.20e6	1.37e6	1.17e6	1.16e6
45	SkpC	SID104200167	1.54e6	1.56e6	1.03e6	1.14e6
46	Ilp5	SID104188790	1.46e6	1.63e6	1.14e6	1.29e6
47	alpha-Catr	SID104184461	1.63e6	1.67e6	1.31e6	1.49e6
48	Cisd2	SID104194696	1.69e6	1.74e6	1.03e6	1.23e6
49	sca	SID104187469	1.63e6	1.64e6	1.12e6	1.30e6
50	Prip	SID104186836	1.37e6	1.47e6	1.09e6	1.10e6
51	Gas41	SID104182948	1.21e6	1.32e6	5.73e5	7.63e5
52	poe	SID104183385	1.37e6	1.39e6	7.13e5	8.14e5
53	CG13699	SID104189840	1.49e6	1.68e6	1.26e6	1.36e6
54	CG10970	SID104197564	6.07e5		9.40e5	
55	gb	SID104195753	5.31e5		8.65e5	
56	CG17991	SID104195086	1.57e6	1.59e6	1.11e6	1.26e6
57	lola	SID104185012	1.43e6	1.35e6	7.97e5	9.80e5
58	lola	SID104185013	1.62e6	1.61e6	1.04e6	1.24e6
59	lola	SID104185014	1.61e6	1.53e6	9.97e5	1.19e6
60	lola	SID104185015	1.44e6	1.42e6	7.94e5	9.79e5
61	lola	SID104185016	1.50e6	1.50e6	9.69e5	1.16e6
62	lola	SID104186530	1.42e6	1.45e6	1.06e6	1.19e6
63	lola	SID104186531	1.71e6	1.62e6	1.25e6	1.29e6
64	lola	SID104186532	1.32e6	1.44e6	1.12e6	1.18e6
65	lola	SID104186533	1.91e6	1.98e6	1.41e6	1.61e6
66	lola	SID104186534	1.05e6 (active)	1.20e6	7.04e5	8.38e5
67	lola	SID104187438	1.41e6	1.44e6	1.16e6	1.24e6
68	lola	SID104187439	1.68e6	1.76e6	1.08e6	1.24e6
69	PIG-G	SID104186615	1.44e6	1.43e6	1.26e6	1.19e6
70	CG1910	SID104195192	5.22e5		7.07e5	
71	CG14000	SID104182124	1.44e6	1.33e6	1.12e6	1.26e6
72	dpr3	SID104180187	1.52e6	1.58e6	1.01e6	1.16e6
73	dpr3	SID104180188	1.51e6	1.56e6	1.04e6	1.14e6
74	CG10602	SID104181867	1.27e6	1.32e6	1.29e6	1.30e6
75	CG3776	SID104184209	1.42e6	1.44e6	1.13e6	1.13e6
